Earlier results in patent publication US5231089A, “Method of improving oral bioavailability of carbamazepine” (priority 1992, dated 1993).

Conditions: with cyclodextrin polymer; cited from earlier work

Structure (SMILES): NS(=O)(=O)c1cc(C(=O)O)c(NCc2ccco2)cc1Cl [furosemide]
- dissolution: improve
